Literature values in publication PMC10052025 (Pharmaceutics, 2023).

System: OATP1B1 c. 521CC genotype
Conditions: subjects with OATP1B1 c. 521CC genotype; cited from earlier work

**Q.** For `CC(C)c1c(C(=O)Nc2ccccc2)c(-c2ccccc2)c(-c2ccc(F)cc2)n1CC[C@@H](O)C[C@@H](O)CC(=O)O` [atorvastatin], which “increased AUC, fold of the reference” value is on record?
**A.** 2.4 fold
